# Results as given in the supplement of paper PMC12595434, “Development of retinoid nuclear receptor pathway antagonists through targeting aldehyde dehydrogenase 1A3” (iScience, 2025).
# Protein sequences, listed by entry. Tags and fused reporters are not part of them. Lines headed by an entry give the natural chain unless they say otherwise; changes in a name come on top.
# UniProt Q9BUV8: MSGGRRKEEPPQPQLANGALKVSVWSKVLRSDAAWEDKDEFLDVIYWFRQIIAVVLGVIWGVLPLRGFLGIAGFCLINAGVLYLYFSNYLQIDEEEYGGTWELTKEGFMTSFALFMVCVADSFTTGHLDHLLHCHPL
# UniProt Q9BT73: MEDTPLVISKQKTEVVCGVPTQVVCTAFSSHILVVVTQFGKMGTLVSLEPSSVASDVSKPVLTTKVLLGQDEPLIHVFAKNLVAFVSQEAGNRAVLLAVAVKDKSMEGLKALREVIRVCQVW
# UniProt Q9BW92: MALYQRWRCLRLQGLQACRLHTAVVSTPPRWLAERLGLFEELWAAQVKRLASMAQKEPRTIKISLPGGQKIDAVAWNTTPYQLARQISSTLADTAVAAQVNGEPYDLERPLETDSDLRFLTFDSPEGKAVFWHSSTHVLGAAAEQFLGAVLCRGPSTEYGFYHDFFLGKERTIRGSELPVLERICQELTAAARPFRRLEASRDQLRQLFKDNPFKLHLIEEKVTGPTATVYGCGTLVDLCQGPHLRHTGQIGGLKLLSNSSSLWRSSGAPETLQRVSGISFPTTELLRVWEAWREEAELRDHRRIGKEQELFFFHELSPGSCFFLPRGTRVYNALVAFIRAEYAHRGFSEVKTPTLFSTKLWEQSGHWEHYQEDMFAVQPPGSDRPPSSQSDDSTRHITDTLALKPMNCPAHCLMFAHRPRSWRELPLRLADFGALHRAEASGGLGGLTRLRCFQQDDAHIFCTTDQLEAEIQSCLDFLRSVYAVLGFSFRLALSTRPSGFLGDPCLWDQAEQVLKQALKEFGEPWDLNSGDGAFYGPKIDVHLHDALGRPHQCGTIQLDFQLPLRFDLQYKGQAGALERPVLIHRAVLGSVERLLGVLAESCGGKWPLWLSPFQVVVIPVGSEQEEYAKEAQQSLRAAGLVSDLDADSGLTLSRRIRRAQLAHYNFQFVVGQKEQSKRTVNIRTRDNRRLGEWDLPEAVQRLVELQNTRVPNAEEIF
# UniProt Q9BUN8: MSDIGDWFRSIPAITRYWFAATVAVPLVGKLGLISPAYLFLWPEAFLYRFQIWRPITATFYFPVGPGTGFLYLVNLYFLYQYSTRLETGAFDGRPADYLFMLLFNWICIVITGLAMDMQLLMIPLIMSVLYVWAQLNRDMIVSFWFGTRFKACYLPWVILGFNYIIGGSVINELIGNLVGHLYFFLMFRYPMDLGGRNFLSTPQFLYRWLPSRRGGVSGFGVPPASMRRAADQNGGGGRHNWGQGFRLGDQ
# UniProt Q9BSJ5: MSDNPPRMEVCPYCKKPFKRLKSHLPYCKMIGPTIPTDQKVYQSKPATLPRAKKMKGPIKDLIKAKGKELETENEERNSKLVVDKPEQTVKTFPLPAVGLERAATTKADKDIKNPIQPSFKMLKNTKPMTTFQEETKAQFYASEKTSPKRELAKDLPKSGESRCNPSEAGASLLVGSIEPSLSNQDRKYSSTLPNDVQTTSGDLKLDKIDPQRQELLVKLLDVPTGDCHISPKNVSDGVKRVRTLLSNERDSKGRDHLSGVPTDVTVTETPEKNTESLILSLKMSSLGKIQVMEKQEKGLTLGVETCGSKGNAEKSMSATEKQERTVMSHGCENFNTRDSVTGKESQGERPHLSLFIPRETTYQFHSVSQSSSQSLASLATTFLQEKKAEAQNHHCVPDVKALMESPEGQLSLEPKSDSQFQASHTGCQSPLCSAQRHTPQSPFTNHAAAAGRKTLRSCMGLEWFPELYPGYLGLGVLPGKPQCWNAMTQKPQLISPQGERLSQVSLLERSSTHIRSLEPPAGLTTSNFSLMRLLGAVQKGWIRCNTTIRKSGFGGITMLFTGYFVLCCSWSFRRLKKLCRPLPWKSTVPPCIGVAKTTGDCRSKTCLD
# UniProt Q9BUP3: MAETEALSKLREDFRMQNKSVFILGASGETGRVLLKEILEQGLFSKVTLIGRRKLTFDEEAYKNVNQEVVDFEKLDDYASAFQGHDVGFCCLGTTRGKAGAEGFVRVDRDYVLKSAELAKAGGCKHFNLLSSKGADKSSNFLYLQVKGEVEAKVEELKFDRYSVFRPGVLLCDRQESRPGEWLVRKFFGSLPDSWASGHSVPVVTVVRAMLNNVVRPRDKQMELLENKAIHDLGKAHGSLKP
# UniProt Q9BRS2: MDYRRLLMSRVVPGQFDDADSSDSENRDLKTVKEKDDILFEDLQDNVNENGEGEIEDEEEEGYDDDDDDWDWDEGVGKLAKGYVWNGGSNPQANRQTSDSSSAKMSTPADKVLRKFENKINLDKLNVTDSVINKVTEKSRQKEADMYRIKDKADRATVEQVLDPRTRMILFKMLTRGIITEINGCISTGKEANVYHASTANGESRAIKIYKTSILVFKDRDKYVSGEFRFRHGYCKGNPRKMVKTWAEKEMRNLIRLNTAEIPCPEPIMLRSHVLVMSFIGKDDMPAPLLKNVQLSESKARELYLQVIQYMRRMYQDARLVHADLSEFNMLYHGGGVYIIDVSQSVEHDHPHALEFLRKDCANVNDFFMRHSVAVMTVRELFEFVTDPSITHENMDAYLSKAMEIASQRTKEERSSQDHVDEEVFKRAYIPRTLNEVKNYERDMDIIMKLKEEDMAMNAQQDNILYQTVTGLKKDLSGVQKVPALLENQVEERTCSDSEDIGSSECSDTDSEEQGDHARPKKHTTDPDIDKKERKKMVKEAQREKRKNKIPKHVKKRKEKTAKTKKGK
# UniProt Q9BRR3: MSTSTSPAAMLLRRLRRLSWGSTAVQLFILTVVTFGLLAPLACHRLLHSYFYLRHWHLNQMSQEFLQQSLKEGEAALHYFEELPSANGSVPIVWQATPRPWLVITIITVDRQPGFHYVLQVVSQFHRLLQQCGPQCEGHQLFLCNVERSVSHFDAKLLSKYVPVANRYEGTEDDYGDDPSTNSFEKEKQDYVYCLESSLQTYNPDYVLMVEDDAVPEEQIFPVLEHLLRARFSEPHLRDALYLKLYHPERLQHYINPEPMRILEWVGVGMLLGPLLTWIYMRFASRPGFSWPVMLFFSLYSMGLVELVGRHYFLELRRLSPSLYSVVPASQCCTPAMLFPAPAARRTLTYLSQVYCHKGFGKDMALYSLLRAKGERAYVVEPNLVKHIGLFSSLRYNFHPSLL
# UniProt Q9BTX7: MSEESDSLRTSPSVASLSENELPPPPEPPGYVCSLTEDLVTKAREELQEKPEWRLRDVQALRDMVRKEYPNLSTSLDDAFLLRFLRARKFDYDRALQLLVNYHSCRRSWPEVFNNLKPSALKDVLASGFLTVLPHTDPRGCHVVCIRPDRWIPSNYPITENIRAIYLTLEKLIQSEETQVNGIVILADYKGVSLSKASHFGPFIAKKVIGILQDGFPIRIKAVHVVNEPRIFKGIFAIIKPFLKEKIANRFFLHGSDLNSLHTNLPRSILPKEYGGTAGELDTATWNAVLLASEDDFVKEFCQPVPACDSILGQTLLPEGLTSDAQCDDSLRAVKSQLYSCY
# UniProt Q9BRT9, whole entry: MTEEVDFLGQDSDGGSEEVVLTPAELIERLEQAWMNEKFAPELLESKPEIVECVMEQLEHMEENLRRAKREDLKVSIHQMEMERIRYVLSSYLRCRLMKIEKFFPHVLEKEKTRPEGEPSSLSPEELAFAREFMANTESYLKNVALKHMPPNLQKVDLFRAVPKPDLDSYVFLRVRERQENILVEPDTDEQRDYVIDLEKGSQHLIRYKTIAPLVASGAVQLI
# UniProt Q9BUG6: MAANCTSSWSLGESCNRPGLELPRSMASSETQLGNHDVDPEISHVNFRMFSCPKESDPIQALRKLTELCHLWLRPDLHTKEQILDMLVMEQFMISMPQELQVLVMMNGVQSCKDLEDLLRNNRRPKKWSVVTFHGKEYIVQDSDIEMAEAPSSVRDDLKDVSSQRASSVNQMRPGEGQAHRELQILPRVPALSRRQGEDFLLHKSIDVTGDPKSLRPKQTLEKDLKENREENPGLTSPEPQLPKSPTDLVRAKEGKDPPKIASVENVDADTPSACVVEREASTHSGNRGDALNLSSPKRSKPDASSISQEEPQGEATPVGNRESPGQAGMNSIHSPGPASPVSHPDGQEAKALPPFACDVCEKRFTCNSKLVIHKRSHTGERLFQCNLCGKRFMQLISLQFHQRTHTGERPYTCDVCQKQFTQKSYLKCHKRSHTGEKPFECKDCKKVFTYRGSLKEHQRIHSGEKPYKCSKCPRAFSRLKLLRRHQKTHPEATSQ
# UniProt Q9BV73: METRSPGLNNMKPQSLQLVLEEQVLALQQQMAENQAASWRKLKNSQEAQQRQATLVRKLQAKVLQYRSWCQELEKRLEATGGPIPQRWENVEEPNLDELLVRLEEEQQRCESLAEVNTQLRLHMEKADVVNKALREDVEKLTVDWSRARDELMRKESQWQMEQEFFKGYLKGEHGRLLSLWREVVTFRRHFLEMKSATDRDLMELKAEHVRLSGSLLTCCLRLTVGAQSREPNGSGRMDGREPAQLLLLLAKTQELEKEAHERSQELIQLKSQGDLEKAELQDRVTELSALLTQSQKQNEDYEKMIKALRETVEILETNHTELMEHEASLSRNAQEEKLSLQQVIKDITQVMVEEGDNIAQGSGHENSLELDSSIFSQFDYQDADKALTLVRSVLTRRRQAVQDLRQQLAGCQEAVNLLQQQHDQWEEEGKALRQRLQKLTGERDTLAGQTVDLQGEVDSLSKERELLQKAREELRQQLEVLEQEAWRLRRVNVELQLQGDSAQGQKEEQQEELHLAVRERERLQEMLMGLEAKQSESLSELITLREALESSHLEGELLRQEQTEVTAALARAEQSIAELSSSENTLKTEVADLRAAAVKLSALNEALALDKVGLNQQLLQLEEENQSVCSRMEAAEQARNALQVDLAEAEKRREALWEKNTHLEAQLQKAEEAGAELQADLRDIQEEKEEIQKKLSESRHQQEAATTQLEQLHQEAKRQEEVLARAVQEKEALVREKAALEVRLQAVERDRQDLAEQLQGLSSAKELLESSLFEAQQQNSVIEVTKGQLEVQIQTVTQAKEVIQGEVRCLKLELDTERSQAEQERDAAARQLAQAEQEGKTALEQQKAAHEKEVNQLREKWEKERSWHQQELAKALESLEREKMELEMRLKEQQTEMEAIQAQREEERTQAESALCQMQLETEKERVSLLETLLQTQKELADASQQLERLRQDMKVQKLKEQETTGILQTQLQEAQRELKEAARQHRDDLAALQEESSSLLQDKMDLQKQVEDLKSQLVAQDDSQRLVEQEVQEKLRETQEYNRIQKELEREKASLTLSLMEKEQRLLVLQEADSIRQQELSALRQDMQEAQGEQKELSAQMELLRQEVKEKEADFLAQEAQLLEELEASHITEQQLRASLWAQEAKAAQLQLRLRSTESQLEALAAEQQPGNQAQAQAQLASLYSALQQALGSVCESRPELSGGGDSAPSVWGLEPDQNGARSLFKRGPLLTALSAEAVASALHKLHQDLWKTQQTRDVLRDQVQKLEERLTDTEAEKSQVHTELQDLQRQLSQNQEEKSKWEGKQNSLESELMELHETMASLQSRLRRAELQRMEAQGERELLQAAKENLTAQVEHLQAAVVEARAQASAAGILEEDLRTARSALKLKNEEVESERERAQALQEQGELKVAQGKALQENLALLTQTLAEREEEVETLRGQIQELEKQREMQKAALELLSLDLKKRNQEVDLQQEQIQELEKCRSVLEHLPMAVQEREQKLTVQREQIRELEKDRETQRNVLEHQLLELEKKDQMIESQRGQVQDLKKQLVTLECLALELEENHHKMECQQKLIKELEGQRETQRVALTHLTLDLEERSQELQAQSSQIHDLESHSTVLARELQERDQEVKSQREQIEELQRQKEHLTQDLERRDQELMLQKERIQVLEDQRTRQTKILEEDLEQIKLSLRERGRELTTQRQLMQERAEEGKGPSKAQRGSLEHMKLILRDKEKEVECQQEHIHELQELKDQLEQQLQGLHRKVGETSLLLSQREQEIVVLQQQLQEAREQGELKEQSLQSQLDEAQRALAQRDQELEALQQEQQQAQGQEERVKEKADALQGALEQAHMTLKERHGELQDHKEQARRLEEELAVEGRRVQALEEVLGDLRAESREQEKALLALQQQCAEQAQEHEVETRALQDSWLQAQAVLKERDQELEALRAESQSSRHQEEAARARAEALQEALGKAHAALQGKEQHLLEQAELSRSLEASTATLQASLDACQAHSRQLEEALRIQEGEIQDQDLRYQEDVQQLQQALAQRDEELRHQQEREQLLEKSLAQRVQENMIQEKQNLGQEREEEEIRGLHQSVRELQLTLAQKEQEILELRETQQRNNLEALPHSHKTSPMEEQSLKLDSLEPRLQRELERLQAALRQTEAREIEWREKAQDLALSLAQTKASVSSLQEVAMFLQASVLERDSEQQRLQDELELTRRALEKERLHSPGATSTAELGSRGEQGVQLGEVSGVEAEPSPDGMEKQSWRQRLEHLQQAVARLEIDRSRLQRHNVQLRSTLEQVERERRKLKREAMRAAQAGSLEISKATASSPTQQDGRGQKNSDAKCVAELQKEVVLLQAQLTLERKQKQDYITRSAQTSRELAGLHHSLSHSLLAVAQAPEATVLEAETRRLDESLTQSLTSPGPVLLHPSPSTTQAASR
# The other results are listed elsewhere or left out. The data scatter; read single values as rough.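 Many melting curves are irregular; where none melted, Tm was taken as 64 °C.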
# Compound: CCc1cnccc1C(=O)Nc1cc2c(cc1F)NC(=O)CC2
# Assay: melting temperature shift (DMSO Tm minus MBE1-treated Tm) in cellular thermal proteome profiling; higher = less thermal stabilization by MBE1 (negative = stabilized by MBE1)
# Settings: A375
target,measurement,setting,value
UniProt Q99766,melting temperature shift,MBE1 concentration: 100 nM,0.708 °C
same,melting temperature shift,MBE1 concentration: 1 uM,0.391 °C
MICU1 (UniProt Q9BPX6),melting temperature shift,MBE1 concentration: 100 nM,-0.847 °C
same,melting temperature shift,MBE1 concentration: 1 uM,0.983 °C
COPS8 (UniProt Q99627),melting temperature shift,MBE1 concentration: 100 nM,-0.879 °C
same,melting temperature shift,MBE1 concentration: 1 uM,-0.0134 °C
DPH7 (UniProt Q9BTV6),melting temperature shift,MBE1 concentration: 100 nM,-1.11 °C
same,melting temperature shift,MBE1 concentration: 1 uM,0.116 °C
NTPCR (UniProt Q9BSD7),melting temperature shift,MBE1 concentration: 100 nM,-0.738 °C
same,melting temperature shift,MBE1 concentration: 1 uM,0.226 °C
FUCA2 (UniProt Q9BTY2),melting temperature shift,MBE1 concentration: 100 nM,-1.82 °C
same,melting temperature shift,MBE1 concentration: 1 uM,-2.98 °C
KIAA0586 (UniProt Q9BVV6),melting temperature shift,MBE1 concentration: 100 nM,-0.181 °C
same,melting temperature shift,MBE1 concentration: 1 uM,-0.666 °C
C20ORF24 (UniProt Q9BUV8),melting temperature shift,MBE1 concentration: 100 nM,-0.189 °C
same,melting temperature shift,MBE1 concentration: 1 uM,1.91 °C
SRRT (UniProt Q9BXP5),melting temperature shift,MBE1 concentration: 100 nM,-0.489 °C
same,melting temperature shift,MBE1 concentration: 1 uM,-0.249 °C
TSG101 (UniProt Q99816),melting temperature shift,MBE1 concentration: 100 nM,0.757 °C
same,melting temperature shift,MBE1 concentration: 1 uM,0.641 °C
NDUFAF3 (UniProt Q9BU61),melting temperature shift,MBE1 concentration: 100 nM,-1.07 °C
same,melting temperature shift,MBE1 concentration: 1 uM,-0.543 °C
PSMG3 (UniProt Q9BT73),melting temperature shift,MBE1 concentration: 100 nM,-4.44 °C
same,melting temperature shift,MBE1 concentration: 1 uM,2.1 °C
SLC26A6 (UniProt Q9BXS9),melting temperature shift,MBE1 concentration: 100 nM,-3.1 °C
same,melting temperature shift,MBE1 concentration: 1 uM,-0.302 °C
DIDO1 (UniProt Q9BTC0),melting temperature shift,MBE1 concentration: 100 nM,-0.871 °C
same,melting temperature shift,MBE1 concentration: 1 uM,-0.499 °C
UniProt Q9BPX7,melting temperature shift,MBE1 concentration: 100 nM,-1.25 °C
same,melting temperature shift,MBE1 concentration: 1 uM,-1.02 °C
TARS2 (UniProt Q9BW92),melting temperature shift,MBE1 concentration: 100 nM,-0.725 °C
same,melting temperature shift,MBE1 concentration: 1 uM,0.193 °C
HNRNPAB (UniProt Q99729),melting temperature shift,MBE1 concentration: 100 nM,-2.3 °C
same,melting temperature shift,MBE1 concentration: 1 uM,0.111 °C
DDX50 (UniProt Q9BQ39),melting temperature shift,MBE1 concentration: 100 nM,-0.0282 °C
same,melting temperature shift,MBE1 concentration: 1 uM,0.16 °C
DERL1 (UniProt Q9BUN8),melting temperature shift,MBE1 concentration: 100 nM,-3.67 °C
same,melting temperature shift,MBE1 concentration: 1 uM,-3.67 °C
MTR (UniProt Q99707),melting temperature shift,MBE1 concentration: 100 nM,0.0565 °C
same,melting temperature shift,MBE1 concentration: 1 uM,-0.174 °C
MIPEP (UniProt Q99797),melting temperature shift,MBE1 concentration: 100 nM,0.348 °C
same,melting temperature shift,MBE1 concentration: 1 uM,0.055 °C
C17ORF80 (UniProt Q9BSJ5),melting temperature shift,MBE1 concentration: 100 nM,-0.174 °C
same,melting temperature shift,MBE1 concentration: 1 uM,-0.256 °C
CCDC94 (UniProt Q9BW85),melting temperature shift,MBE1 concentration: 100 nM,-0.49 °C
same,melting temperature shift,MBE1 concentration: 1 uM,-0.0122 °C
UniProt Q9BRU9,melting temperature shift,MBE1 concentration: 100 nM,-0.342 °C
same,melting temperature shift,MBE1 concentration: 1 uM,7.34 °C
UniProt Q9BSC4,melting temperature shift,MBE1 concentration: 100 nM,-0.0641 °C
same,melting temperature shift,MBE1 concentration: 1 uM,-0.0128 °C
DDA1 (UniProt Q9BW61),melting temperature shift,MBE1 concentration: 100 nM,0.696 °C
same,melting temperature shift,MBE1 concentration: 1 uM,0.452 °C
PHF23 (UniProt Q9BUL5),melting temperature shift,MBE1 concentration: 100 nM,-1.24 °C
same,melting temperature shift,MBE1 concentration: 1 uM,-1.33 °C
CNPY3 (UniProt Q9BT09),melting temperature shift,MBE1 concentration: 100 nM,-2.4 °C
same,melting temperature shift,MBE1 concentration: 1 uM,-2.93 °C
POLDIP3 (UniProt Q9BY77),melting temperature shift,MBE1 concentration: 100 nM,1.21 °C
same,melting temperature shift,MBE1 concentration: 1 uM,0.128 °C
MMTAG2 (UniProt Q9BU76),melting temperature shift,MBE1 concentration: 100 nM,-2.41 °C
same,melting temperature shift,MBE1 concentration: 1 uM,-5.29 °C
ACAT2 (UniProt Q9BWD1),melting temperature shift,MBE1 concentration: 100 nM,-0.478 °C
same,melting temperature shift,MBE1 concentration: 1 uM,0.667 °C
PIP5K1A (UniProt Q99755),melting temperature shift,MBE1 concentration: 100 nM,0.147 °C
same,melting temperature shift,MBE1 concentration: 1 uM,0.708 °C
HTATIP2 (UniProt Q9BUP3),melting temperature shift,MBE1 concentration: 100 nM,0.879 °C
same,melting temperature shift,MBE1 concentration: 1 uM,-0.0916 °C
UniProt Q99728,melting temperature shift,MBE1 concentration: 100 nM,-4.53 °C
same,melting temperature shift,MBE1 concentration: 1 uM,-2.59 °C
MRPL45 (UniProt Q9BRJ2),melting temperature shift,MBE1 concentration: 100 nM,1.37 °C
same,melting temperature shift,MBE1 concentration: 1 uM,-1.39 °C
RIOK1 (UniProt Q9BRS2),melting temperature shift,MBE1 concentration: 100 nM,-2.11 °C
same,melting temperature shift,MBE1 concentration: 1 uM,0.434 °C
TRMT61B (UniProt Q9BVS5),melting temperature shift,MBE1 concentration: 100 nM,-3.17 °C
same,melting temperature shift,MBE1 concentration: 1 uM,-1.88 °C
TMEM59 (UniProt Q9BXS4),melting temperature shift,MBE1 concentration: 100 nM,-2.02 °C
same,melting temperature shift,MBE1 concentration: 1 uM,0.718 °C
UniProt Q9BRR3,melting temperature shift,MBE1 concentration: 100 nM,-0.711 °C
same,melting temperature shift,MBE1 concentration: 1 uM,-0.825 °C
ECSIT (UniProt Q9BQ95),melting temperature shift,MBE1 concentration: 100 nM,-0.689 °C
same,melting temperature shift,MBE1 concentration: 1 uM,-1.69 °C
REPIN1 (UniProt Q9BWE0),melting temperature shift,MBE1 concentration: 100 nM,-0.695 °C
same,melting temperature shift,MBE1 concentration: 1 uM,0.147 °C
INPP5K (UniProt Q9BT40),melting temperature shift,MBE1 concentration: 100 nM,0.934 °C
same,melting temperature shift,MBE1 concentration: 1 uM,0.885 °C
AP1M1 (UniProt Q9BXS5),melting temperature shift,MBE1 concentration: 100 nM,0.965 °C
same,melting temperature shift,MBE1 concentration: 1 uM,-0.055 °C
KIFC1 (UniProt Q9BW19),melting temperature shift,MBE1 concentration: 100 nM,-0.666 °C
same,melting temperature shift,MBE1 concentration: 1 uM,-0.602 °C
AARSD1 (UniProt Q9BTE6),melting temperature shift,MBE1 concentration: 100 nM,0.281 °C
same,melting temperature shift,MBE1 concentration: 1 uM,-0.788 °C
RTFDC1 (UniProt Q9BY42),melting temperature shift,MBE1 concentration: 100 nM,0.318 °C
same,melting temperature shift,MBE1 concentration: 1 uM,-0.452 °C
AGPAT1 (UniProt Q99943),melting temperature shift,MBE1 concentration: 100 nM,0.989 °C
same,melting temperature shift,MBE1 concentration: 1 uM,0.25 °C
SDF4 (UniProt Q9BRK5),melting temperature shift,MBE1 concentration: 100 nM,-0.521 °C
same,melting temperature shift,MBE1 concentration: 1 uM,0.195 °C
TTPAL (UniProt Q9BTX7),melting temperature shift,MBE1 concentration: 100 nM,-0.476 °C
same,melting temperature shift,MBE1 concentration: 1 uM,0.25 °C
THUMPD3 (UniProt Q9BV44),melting temperature shift,MBE1 concentration: 100 nM,-0.812 °C
same,melting temperature shift,MBE1 concentration: 1 uM,-0.241 °C
GINS4 (UniProt Q9BRT9),melting temperature shift,MBE1 concentration: 100 nM,-0.189 °C
same,melting temperature shift,MBE1 concentration: 1 uM,0.244 °C
UniProt Q99828,melting temperature shift,MBE1 concentration: 100 nM,0.434 °C
same,melting temperature shift,MBE1 concentration: 1 uM,2.25 °C
UniProt Q9BVS4,melting temperature shift,MBE1 concentration: 100 nM,-0.44 °C
same,melting temperature shift,MBE1 concentration: 1 uM,0.47 °C
UniProt Q9BUG6,melting temperature shift,MBE1 concentration: 100 nM,-2.49 °C
same,melting temperature shift,MBE1 concentration: 1 uM,0.722 °C
CEP250 (UniProt Q9BV73),melting temperature shift,MBE1 concentration: 100 nM,2.93 °C
same,melting temperature shift,MBE1 concentration: 1 uM,2.07 °C
HNRNPUL1 (UniProt Q9BUJ2),melting temperature shift,MBE1 concentration: 100 nM,-0.973 °C
same,melting temperature shift,MBE1 concentration: 1 uM,-0.72 °C
TBC1D10A (UniProt Q9BXI6),melting temperature shift,MBE1 concentration: 100 nM,1.95 °C
same,melting temperature shift,MBE1 concentration: 1 uM,0.971 °C
SELO (UniProt Q9BVL4),melting temperature shift,MBE1 concentration: 100 nM,2.24 °C
same,melting temperature shift,MBE1 concentration: 1 uM,0.947 °C
POP1 (UniProt Q99575),melting temperature shift,MBE1 concentration: 100 nM,-1.31 °C
same,melting temperature shift,MBE1 concentration: 1 uM,-0.615 °C
TUBGCP2 (UniProt Q9BSJ2),melting temperature shift,MBE1 concentration: 100 nM,0.684 °C
same,melting temperature shift,MBE1 concentration: 1 uM,0.421 °C

# Nothing new here: entries from further up.
target,measurement,setting,value
TMEM59 (UniProt Q9BXS4),melting temperature shift,MBE1 concentration: 1 uM,0.718 °C
UniProt Q9BRR3,melting temperature shift,MBE1 concentration: 100 nM,-0.711 °C
same,melting temperature shift,MBE1 concentration: 1 uM,-0.825 °C
ECSIT (UniProt Q9BQ95),melting temperature shift,MBE1 concentration: 100 nM,-0.689 °C
same,melting temperature shift,MBE1 concentration: 1 uM,-1.69 °C
REPIN1 (UniProt Q9BWE0),melting temperature shift,MBE1 concentration: 100 nM,-0.695 °C

# Two entries from above in a different format:
target | measurement | setting | value
SRRT (UniProt Q9BXP5) | melting temperature shift | MBE1 concentration: 1 uM | -0.249 °C
TBC1D10A (UniProt Q9BXI6) | melting temperature shift | MBE1 concentration: 1 uM | 0.971 °C
